# Measurements published in article doi:10.1101/2021.07.13.452210.
# Results are given in words; binding and its absence hold for the method and conditions named. Some entries that bind do so weakly or less than the wild type.
# T1: overexpressed CEP90 (UniProt Q8WXW3)
# T1 sequence: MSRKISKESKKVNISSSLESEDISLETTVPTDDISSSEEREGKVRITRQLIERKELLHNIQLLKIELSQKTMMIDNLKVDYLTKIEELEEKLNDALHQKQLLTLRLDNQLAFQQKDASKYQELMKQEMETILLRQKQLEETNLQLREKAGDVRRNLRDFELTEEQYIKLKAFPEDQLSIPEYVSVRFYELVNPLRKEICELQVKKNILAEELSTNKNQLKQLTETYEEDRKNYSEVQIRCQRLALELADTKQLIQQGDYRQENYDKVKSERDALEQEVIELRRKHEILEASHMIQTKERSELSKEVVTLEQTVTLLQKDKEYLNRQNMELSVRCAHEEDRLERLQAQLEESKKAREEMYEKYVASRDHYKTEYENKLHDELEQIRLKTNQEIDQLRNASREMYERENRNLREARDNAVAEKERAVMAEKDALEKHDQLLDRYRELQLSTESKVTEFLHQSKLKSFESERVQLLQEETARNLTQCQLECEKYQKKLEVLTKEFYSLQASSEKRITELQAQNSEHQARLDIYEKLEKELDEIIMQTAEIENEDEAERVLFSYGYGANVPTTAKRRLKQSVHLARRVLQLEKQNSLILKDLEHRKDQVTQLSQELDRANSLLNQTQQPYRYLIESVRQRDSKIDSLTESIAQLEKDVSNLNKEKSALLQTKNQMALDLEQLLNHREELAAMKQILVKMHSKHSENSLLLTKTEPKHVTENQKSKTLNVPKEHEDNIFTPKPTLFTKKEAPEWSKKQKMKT
# Biological target: T1, overexpressed CEP90
# Assay: microtubule recruitment
binder,measurement,value
"endogenous CEP83 (protein, UniProt Q9Y592 1-701) MVVSTFTDMDTFPNNFPPGGDSGLTGSQSEFQKMLIDERLRCEHHKANYQTLKAEHTRLQNEHVKLQNELKHLFNEKQTQQEKLQLLLEELRGELVEKTKDLEEMKLQILTPQKLELLRAQIQQELETPMRERFRNLDEEVEKYRAVYNKLRYEHTFLKSEFEHQKEEYARILDEGKIKYESEIARLEEDKEELRNQLLNVDLTKDSKRVEQLAREKVYLCQKLKGLEAEVAELKAEKENSEAQVENAQRIQVRQLAEMQATVRSLEAEKQSANLRAERLEKELQSSSEQNTFLINKLHKAEREINTLSSKVKELKHSNKLEITDIKLETARAKSELERERNKIQSELDGLQSDNEILKAAVEHHKVLLVEKDRELIRKVQAAKEEGYQKLVVLQDEKLELENRLADLEKMKVEHDVWRQSEKDQYEEKLRASQMAEEITRKELQSVRLKLQQQIVTIENAEKEKNENSDLKQQISSLQIQVTSLAQSENDLLNSNQMLKEMVERLKQECRNFRSQAEKAQLEAEKTLEEKQIQWLEEKHKLHERITDREEKYNQAKEKLQRAAIAQKKRKSLHENKLKRLQEKVEVLEAKKEELETENQVLNRQNVPFEDYTRLQKRLKDIQRRHNEFRSLILVPNMPPTASINPVSFQSSAMVPSMELPFPPHMQEEQHQRELSLLRKRLEELETTQRKQLEELGSSGE",binding,binds
